The data set is described as follows: general procedure: Fmoc solid-phase peptide synthesis; 2-chlorotrityl resin; HBTU/HOBt-H2O/DIPEA. Particulars: conjugation step, two steps (cleavage + coupling).

Turning to “Cbz-Leu-Leu-Leu proteasome substrate bearing a dansyl fluorophore”, the conjugation yield is recorded as 35% for two steps.
